Reference: PubChem BioAssay AID2685 (National Center for Advancing Translational Sciences (NCATS), 2010)
The list shows a part of the results. Shown are side measurements of this screen, not its main read-out; they come without a call. Most of these compounds were active or inconclusive in the main read-out, so they are no random draw. Potencies come from curve fits of mixed quality, noted in brackets.

Assay: qHTS Assay for Lipid Storage Modulators in Drosophila S3 Cells;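 on cell number change: cells counted by Cell Tracker Red CMTPX staining in the red channel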
Conditions: BODIPY lipid droplet fluorescence, 18-24 h; for cell number change: measured here: cell count max response, cells fed with added oleic acid
Summary of the method: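 Laser-scanning cytometry quantifies lipid droplet accumulation (500–530 nm total intensity; droplet/cell object ratio) in oleic acid-fed (400 uM added) Drosophila S3 cells treated with a concentration series. 20 uM Triacsin C defined 100% inhibition.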

[1] = measured here: lipid fluorescence (Fed channel) AC50, cells fed with added oleic acid
[2] = measured here: cell number channel AC50, cells fed with added oleic acid

In the case of `COc1ccc(N(CC(=O)Nc2ccc(OC)c(Cl)c2)S(=O)(=O)c2c(C)noc2C)cc1`, the cell number change is reported as -22.7% and the AC50 [1] is reported as 16.4 µM [falling, single point].

For `O=C(CNC(=O)c1ccc(N2C(=O)c3ccccc3C2=O)cc1)OCC(=O)c1ccccc1`, the cell number change was 11.2% and the AC50 [1] was 0.651 µM [falling, partial curve, poor fit].

With `COc1ccc(-c2csc(Nc3ccccc3)n2)cc1` the cell number change was 24.6% and the AC50 [1] was 0.164 µM [falling, full curve, poor fit].

In the case of `CC1Cc2ccccc2N1C(=O)COC(=O)c1cc(Br)ccc1O` (stereo not drawn), the cell number change is reported as 23.3%.

In the case of `O=C(Nc1ccc2cn[nH]c2c1)c1c(Cl)cccc1Cl`, the cell number change is reported as -35.2%, the AC50 [2] is reported as 20.6 µM [falling, single point] and the AC50 [1] is reported as 18.4 µM [falling, single point].

Compound `CC(C)CC(=O)NC(=S)Nc1ccc(F)cc1F` has a cell number change of 18.2%.

In the case of `O=C(NCc1ccccn1)c1nnc(Cc2ccc(Cl)cc2)o1`, the cell number change is reported as 16.3% and the AC50 [1] is reported as 6.51 µM [rising, single point].

In the case of `O=S(=O)(c1ccccc1)c1nc(-c2ccccc2)oc1NCCCN1CCOCC1`, the cell number change is reported as -19.8% and the AC50 [2] is reported as 0.517 µM [rising, full curve, poor fit].

In the case of `CC(=O)c1cccc(NC(=O)c2ccc(N(Cc3ccccc3C)S(C)(=O)=O)cc2)c1`, the cell number change is reported as -35.1% and the AC50 [2] is reported as 20.6 µM [falling, partial curve, poor fit].

For `COc1ccc(OC)c(S(=O)(=O)Nc2ccccc2C(=O)O)c1`, the AC50 [2] was 6.51 µM [falling, single point].

For `Cc1nc2cc(Cl)ccc2n1-c1ccccc1`, the cell number change was -14.9% and the AC50 [1] was 18.4 µM [rising, single point].

In the case of `Cc1ccccc1CNC(=O)C(=O)NCC1OCCCN1S(=O)(=O)c1ccc(F)cc1C` (stereo not drawn), the cell number change is reported as 7.8% and the AC50 [1] is reported as 18.4 µM [rising, single point].

For `CCOc1ccc(C(=O)Nc2cc(-c3nc4ccccc4[nH]3)ccc2Cl)cc1[N+](=O)[O-]`, the cell number change was 9.5% and the AC50 [1] was 0.13 µM [falling, single point].

With `C/C(=C1/C(=O)N(c2ccc([N+](=O)[O-])cc2)N=C1c1ccccc1)N(C)C` the cell number change was -15.3% and the AC50 [1] was 7.31 µM [falling, single point].

In the case of `Cc1nn(Cc2ccc(Br)cc2)c(C)c1NC(=O)c1nn(C)cc1Cl`, the cell number change is reported as -12.2%.

For `Cc1cc(=O)[nH]c(=O)n1Cc1ccccc1`, the cell number change was 36.3%, the AC50 [2] was 29.1 µM [rising, single point] and the AC50 [1] was 18.4 µM [rising, single point].

With `CCOc1ccc(Nc2nc(Cc3nnc(SCC(=O)NC4CCCC4)n3C)cs2)cc1` the AC50 [1] was 20.6 µM [rising, single point].

In the case of `Oc1c(C(Nc2ccccn2)c2ccccn2)ccc2cccnc12` (stereo not drawn), the cell number change is reported as -11.1% and the AC50 [1] is reported as 0.82 µM [rising, single point].

With `Cc1cc(C)nc(NC(=O)CSc2nnnn2-c2ccccc2)n1` the cell number change was 23.5% and the AC50 [1] was 0.731 µM [rising, full curve, poor fit].

For `CCn1cc(/C=N\NC(=O)c2ccc3c(c2)c(C)c(C)n3Cc2ccccc2)c(C)n1`, the AC50 [2] was 0.259 µM [rising, full curve] and the AC50 [1] was 0.411 µM [rising, full curve].

Work on `Cc1ccc(-c2nc(CS(=O)(=O)CC(=O)NCCN3CCOCC3)c(C)o2)cc1` yielded a cell number change of 0.806%.

`CCN(c1ccccc1)S(=O)(=O)c1ccc(Cl)c(NC(=O)CN2CCCCCC2)c1` gave a cell number change of -16.4%.

In the case of `C/C(=N/NS(=O)(=O)c1ccc(C)cc1)c1ccc(NC(=O)C(F)(F)F)cc1`, the cell number change is reported as -6.23% and the AC50 [2] is reported as 6.51 µM [falling, single point].

With `CCCNC(=S)N(Cc1ccccc1)Cc1nc2ccccc2c(=O)[nH]1` the cell number change was 36.8% and the AC50 [2] was 14.6 µM [rising, partial curve].

In the case of `CCOc1ccccc1NS(=O)(=O)c1cn(C)c(=O)n(C)c1=O`, the cell number change is reported as -0.966% and the AC50 [1] is reported as 18.4 µM [rising, single point].

With `Clc1ccc(-c2n[nH]c3c2CCC3)c(Cl)c1` the cell number change was -15.7% and the AC50 [1] was 58 µM [falling, partial curve, poor fit].

With `COC(=O)c1ccc(C(=O)OC)c(NC(=S)N2CCC(C)CC2)c1` the cell number change was 15% and the AC50 [1] was 32.6 µM [rising, single point].

With `O=C1CSC(c2ccc([N+](=O)[O-])cc2)N1Cc1ccccc1` (stereo not drawn) the cell number change was -12.2% and the AC50 [1] was 1.16 µM [falling, full curve, poor fit].

With `COc1ccc(NC(=O)CN(C)C(=O)c2c(-c3c(F)cccc3Cl)noc2C)cc1` the cell number change was -37.3%, the AC50 [2] was 20.6 µM [falling, single point] and the AC50 [1] was 23.1 µM [falling, single point].

For `O=C(O)c1cccc(NC(=O)c2cccc(S(=O)(=O)N3CCc4ccccc4C3)c2)c1`, the AC50 [1] was 13 µM [rising, partial curve, poor fit].

For `Cc1c(O)ccc(C(=O)CN2CCN(c3ccc(F)cc3)CC2)c1O`, the cell number change was 8.36% and the AC50 [1] was 29.1 µM [rising, single point].

With `COC(=O)c1cc(NC(=O)CN2CCC(C(N)=O)(N3CCCCC3)CC2)cc(C(=O)OC)c1` the cell number change was 73.7%, the AC50 [2] was 16.4 µM [rising, partial curve] and the AC50 [1] was 16.4 µM [rising, partial curve, poor fit].

In the case of `COc1ccc2c(C(=O)c3ccc(C)cc3)n(CCC(N)=O)[n+]([O-])c2c1`, the cell number change is reported as 7.19% and the AC50 [1] is reported as 0.00461 µM [falling, full curve, poor fit].

For `Clc1cccc(/C(Cc2nc3ccccc3[nH]2)=N\Nc2ccccc2)c1`, the cell number change was -7.03% and the AC50 [1] was 29.1 µM [falling, single point].

Compound `O=C(O)C1CCCCC1C(=O)N1CCN(S(=O)(=O)c2ccc(F)cc2)CC1` (stereo not drawn) has a cell number change of -19.1%.

For `COc1ccc(CNC(=O)Cn2ccc(NC(=O)OCc3ccccc3)nc2=O)cc1`, the cell number change was -3.73% and the AC50 [1] was 10.3 µM [rising, single point].

With `CCc1cc2c(=O)c(-c3cscn3)coc2cc1O` the cell number change was -16.3% and the AC50 [1] was 16.4 µM [rising, single point].

For `CN(CCc1ccccn1)C(=O)Nc1ccc(Cl)cc1`, the cell number change was 22.3%, the AC50 [2] was 1.84 µM [rising, partial curve, poor fit] and the AC50 [1] was 5.8 µM [rising, partial curve].

`CCNc1nc(NC(C)C)nc(SCCOc2ccc(C)cc2)n1` gave a cell number change of 3.35%.

Work on `CCOC(=O)N1CCN(CCC(=O)Nc2cc(C)ccc2C)CC1` yielded a cell number change of -1.65%.

For `CCN(CCn1cccn1)Cc1nc(-c2ccc(C(=O)OC)cc2)no1`, the cell number change was 1.14% and the AC50 [1] was 0.411 µM [falling, full curve, poor fit].

With `O=C(NCC(=O)N(c1ccccc1)C(C(=O)NC1CCCCC1)c1cccnc1)c1ccco1` (stereo not drawn) the cell number change was 22.1%.

With `O=C(NC(=S)Nc1ccc(N2CCOCC2)c(Cl)c1)c1cncc(Br)c1` the cell number change was -7.19% and the AC50 [1] was 29.1 µM [falling, single point].

Work on `C=CCn1c(SCC(=O)N2c3ccccc3Sc3ccccc32)nnc1-c1ccco1` yielded a cell number change of -6.45%.

With `CCC(C(=O)OCC(=O)Nc1cc(Cl)cc(Cl)c1)c1ccccc1` (stereo not drawn) the cell number change was -43.1%, the AC50 [2] was 20.6 µM [falling, partial curve] and the AC50 [1] was 0.651 µM [falling, partial curve, poor fit].

In the case of `Cc1ccc(Nc2nc(-c3sc(NC(=O)c4ccc([N+](=O)[O-])cc4)nc3C)cs2)cc1`, the cell number change is reported as -37.5% and the AC50 [2] is reported as 9.2 µM [falling, partial curve].

With `N=C(N)SCc1cccc2ccccc12` the cell number change was -17.5% and the AC50 [1] was 23.1 µM [falling, single point].

In the case of `Cc1cccc(S(=O)(=O)c2c(N)n(-c3ccccc3)c3nc4ccccc4nc23)c1`, the cell number change is reported as 9.41% and the AC50 [1] is reported as 23.1 µM [rising, single point].

Compound `C=CCn1c(SCc2nc3c(c(=O)[nH]c(=O)n3CCCC)n2CCC)nnc1-c1ccccc1` has a cell number change of -14%.

For `FC(F)(F)c1cccc(Cc2noc(CN3CCC(c4ccncc4)CC3)n2)c1`, the cell number change was -38.4%, the AC50 [2] was 29.1 µM [falling, single point] and the AC50 [1] was 29.1 µM [falling, single point].

Work on `COCCNC(=S)N/N=C1\CC(C)CC(C)(C)C1` (stereo not drawn) yielded a cell number change of 12.8%.

In the case of `Cc1ccc(C2CC2c2n[nH]c(=S)n2-c2ccc(Cl)cc2)cc1` (stereo not drawn), the cell number change is reported as -55.3%, the AC50 [2] is reported as 20.6 µM [falling, single point] and the AC50 [1] is reported as 0.184 µM [falling, full curve, poor fit].

In the case of `COc1cc(-c2nc(-c3ccccc3)c(-c3ccc(F)cc3)[nH]2)cc2c1OCO2`, the cell number change is reported as 2.38% and the AC50 [1] is reported as 5.17 µM [rising, single point].

With `O=S(=O)(NCc1ccccn1)c1ccc(Cl)c(C(F)(F)F)c1` the AC50 [1] was 0.116 µM [rising, single point].

With `COC(=O)[C@H](CCSC)NC(=O)NCCC1=CCCCC1` the cell number change was -29.5%, the AC50 [2] was 0.00184 µM [falling, full curve, poor fit] and the AC50 [1] was 23.1 µM [falling, partial curve, poor fit].

Work on `O=C(C1CCCCC1)N1CCN(c2ccccc2F)CC1` yielded a cell number change of 10.5%.

With `Cc1ccc(COn2c(-c3ccc(Cl)cc3)nc3ccc([N+](=O)[O-])cc32)cc1` the cell number change was -9.66% and the AC50 [1] was 29.1 µM [falling, single point].

With `CCOc1ccc(S(=O)(=O)N2CCCCC2)cc1NC(=O)CN1C(=O)NC(C)(C2CC2)C1=O` (stereo not drawn) the cell number change was -20.4% and the AC50 [1] was 6.51 µM [falling, single point].

In the case of `COc1cccc(NC(=O)CSc2nc3scc(C)c3c(=O)[nH]2)c1`, the AC50 [1] is reported as 0.116 µM [falling, full curve].

For `O=C(Oc1ccc2c(c1)OCO2)c1ccncc1`, the cell number change was -11.8% and the AC50 [1] was 6.51 µM [falling, single point].

For `O=C(Nc1cccc(C(=O)N2CCOCC2)c1)c1ncn[nH]1`, the cell number change was -2.43% and the AC50 [1] was 0.206 µM [falling, full curve].
